## Library screen at single concentrations

Source: ChEMBL document CHEMBL3988442, “University of Dundee, Small-Polar-MMV Screening Library” (2021).

Values are the deposited “Percent Effect”, in %. How 0% and 100% were set is not recorded. Most values in the screen are low, and negative values occur. Compounds were drawn at random from those tested, without regard to their results.

Toxoplasma: 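Assay of Toxoplasma gondii numbers, read through their beta-galactosidase reporter with a colour substrate. Tested at 10 µM. Higher reads as fewer parasites (inferred from which compounds were picked for retests). About 67,000 compounds were tested under these conditions; 0.38% (about 260) showed 50% or more at least once.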
T. brucei: 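Whole-parasite assay of Trypanosoma brucei over 72 hours; the read-out is not stated. Concentration: 30 µM. Direction is inferred from retests: higher values go with stronger inhibition. Values scatter widely below zero; nearly all retest evidence comes from the higher of the two concentrations used. About 64,000 compounds were tested under these conditions; 1.5% (about 940) showed 50% or more at least once.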

With CO[C@H]1CO[C@@]2(CCCN(S(=O)(=O)c3ccccc3)C2)C1 the screen gave Toxoplasma: -8.765%; T. brucei: -5.67%. For Fc1ccc(-c2noc(CN3CCC(c4cc[nH]n4)CC3)n2)cc1 the result was Toxoplasma: 16.63%; T. brucei: -27.04%. Result for CC(C)N1CCOCC2(CN(Cc3cccs3)CCO2)C1.O=C(O)C(F)(F)F.O=C(O)C(F)(F)F (configuration not stated) was Toxoplasma: -3.16%; T. brucei: -50.21%. Result for CCn1cc(S(=O)(=O)NC2CCCN(CCCc3ccccc3)C2)cn1 (configuration not stated) was Toxoplasma: -2.625%; T. brucei: -19.51%. O=C(NCC(O)c1ccsc1)Nc1cccs1 (configuration not stated) gave Toxoplasma: 6.278%; T. brucei: 5.296%.

c1cc2c(cc1CN1CCN(Cc3noc(C4CC4)n3)CC1)OCO2 gave Toxoplasma: 13.61%; T. brucei: -43.98%. Result for CCOCC1CN(C(=O)c2cccn2C)Cc2cnn(CC3CC3)c21.O=C(O)C(F)(F)F (configuration not stated) was Toxoplasma: 5.543%; T. brucei: 19.58%. O=C(CCc1ncc(-c2ccc(F)cc2)o1)NCCN1CCOCC1 read Toxoplasma: -1.041%; T. brucei: -18.9%. Result for CC1CCCCN1c1nc2c(c(=O)[nH]1)CCN(Cc1cccnc1)C2 (configuration not stated) was Toxoplasma: 1.473%; T. brucei: 17.23%. For CS(=O)(=O)NCc1cc(=O)n2c(n1)CN(CC1CC1)CCC2.O=C(O)C(F)(F)F the result was Toxoplasma: -6.47%; T. brucei: 5.004%.

COc1c(Cl)cc(C(=O)NCCNc2ncccn2)cc1Cl gave T. brucei: -22.77%. For [H][C@@]12CS(=O)(=O)C[C@]1([H])N(Cc1nc3c(s1)CCCC3)CCN2CCOC the result was Toxoplasma: 10.17%; T. brucei: -5.449%. Result for CCNC(=O)N1CCC2(C1)c1ccccc1S(=O)(=O)N2CCC(C)C (configuration not stated) was Toxoplasma: 3.739%; T. brucei: 13.04%. N#Cc1cccc(CS(=O)(=O)NCCC(O)c2ccccc2)c1 (configuration not stated) read Toxoplasma: -6.718%; T. brucei: 11.41%. O=C(CC1CC1)NCc1cn2c(n1)CN(CC1CC1)CC2.O=C(O)C(F)(F)F read Toxoplasma: 1.608%; T. brucei: 14.47%.

With CC(C)Oc1ccccc1CNC(=O)N1CCC(n2cncn2)CC1 the screen gave Toxoplasma: 0.7312%; T. brucei: 21.6%. With O=C(CCn1nc(C(F)(F)F)c(Cl)c1C1CC1)NN1CCOCC1 the screen gave Toxoplasma: -18.57%; T. brucei: -10.73%. Result for CC(C)CC(C(=O)N1CCCSCC1)N1CCCCC1=O (configuration not stated) was Toxoplasma: -1.765%; T. brucei: -16.16%. Result for Cc1nc(C)n(C2CCCN(C(=O)c3ccn(C(C)C)n3)C2)n1 (configuration not stated) was Toxoplasma: -18.23%; T. brucei: -18.85%. With O=C(CCOc1ccccc1F)N1CCCC1Cn1cccn1 (configuration not stated) the screen gave Toxoplasma: -27.54%; T. brucei: -16.71%.

With Cn1[nH]c(C2CCC2)c(-c2ccc3c(c2)OCO3)c1=N the screen gave Toxoplasma: -2.67%; T. brucei: 1.141%. CC(C)CCNC(=O)c1cccnc1Oc1cccnc1 read Toxoplasma: 0.4428%; T. brucei: -35.33%.

The last 2 entries again:

- Cn1[nH]c(C2CCC2)c(-c2ccc3c(c2)OCO3)c1=N : Toxoplasma: -2.67%; T. brucei: 1.141%
- CC(C)CCNC(=O)c1cccnc1Oc1cccnc1 : Toxoplasma: 0.4428%; T. brucei: -35.33%